Drawing on patent US20260201032A1 (UNIVERSITAT DE BARCELONA, published 2026), this text covers binding for one molecule.

Sequences of proteins named here, by UniProt entry; tags and fusion partners are left off. A change or cut given only in a name is not applied to a line headed by its entry.
UniProt Q01965: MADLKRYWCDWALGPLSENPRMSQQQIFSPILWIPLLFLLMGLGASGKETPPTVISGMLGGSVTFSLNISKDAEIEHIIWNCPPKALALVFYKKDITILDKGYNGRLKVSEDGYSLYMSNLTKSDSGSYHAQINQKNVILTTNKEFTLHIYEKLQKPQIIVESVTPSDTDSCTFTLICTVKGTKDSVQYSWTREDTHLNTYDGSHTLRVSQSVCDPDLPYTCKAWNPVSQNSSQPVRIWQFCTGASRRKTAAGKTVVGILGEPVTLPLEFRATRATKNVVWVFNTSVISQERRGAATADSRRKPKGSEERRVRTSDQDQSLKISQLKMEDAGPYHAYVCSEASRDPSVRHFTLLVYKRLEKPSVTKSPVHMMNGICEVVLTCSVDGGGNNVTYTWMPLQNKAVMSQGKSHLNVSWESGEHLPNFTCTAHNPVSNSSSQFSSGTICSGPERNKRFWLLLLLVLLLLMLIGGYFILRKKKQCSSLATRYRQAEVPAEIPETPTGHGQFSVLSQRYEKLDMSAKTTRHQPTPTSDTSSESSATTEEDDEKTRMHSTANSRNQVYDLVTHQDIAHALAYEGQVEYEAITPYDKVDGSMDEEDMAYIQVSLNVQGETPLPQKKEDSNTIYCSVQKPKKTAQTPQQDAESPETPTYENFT

These are yes or no findings as the source states them, for the method shown. Some entries that bind do so weakly or less than the wild type.

The target in this experiment is T1, CD229 hDI/DII mDIII/DIV (human; mouse) (UniProt Q9HBG7+Q01965).
T1 sequence (looked up): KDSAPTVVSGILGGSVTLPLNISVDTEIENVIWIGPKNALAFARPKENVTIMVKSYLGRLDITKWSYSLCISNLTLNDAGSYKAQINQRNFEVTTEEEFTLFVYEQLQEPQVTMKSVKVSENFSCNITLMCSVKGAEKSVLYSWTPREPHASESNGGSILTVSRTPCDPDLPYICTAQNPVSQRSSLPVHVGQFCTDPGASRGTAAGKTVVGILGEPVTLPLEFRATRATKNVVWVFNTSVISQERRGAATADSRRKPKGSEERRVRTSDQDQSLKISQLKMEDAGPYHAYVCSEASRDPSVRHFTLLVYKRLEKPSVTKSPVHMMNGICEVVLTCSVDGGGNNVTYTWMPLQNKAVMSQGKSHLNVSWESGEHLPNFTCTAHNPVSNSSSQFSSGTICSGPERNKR
The experiment in a line: flow cytometry on transiently transfected COS cells.

B1: HLy9.1.84 (antibody, V domains shown)
VH: QMQLQESGPELVKPGASVKISCKASGYTFTHYYINWVQQRPGQGLEWIGWIFPESGSTYYSEKFKAKATLTVDKSSSTAYMLLSSLTSEDSAVYFCARGTGFFDYWGQGTTLTVSS
VL: QIVLTQSPAIMSASPGEKVTVTCSASSSVSYMFWYQQKPGFSPRLLIYDTSNLASGVPVRFSGSGSGTSYSLTISRMEAEDAATYYCQQWSSYPPTFGGGTKLEIK
notes: also called HLy91.184
With B1, the binding result is given as “binds”.
